No constants are given. Whether binding was seen depends on the method and setting. For part of these data: Binding seen in cells or lysates may run through a third protein. Some binding calls cover weakened binding; strength is not graded here. Where a sequence is shown, tags or fusion partners need not be part of it.
T1: KaiC1 (Synechocystis sp. strain PCC 6803), GAL4 AD or BD fusion (Synechocystis sp. strain PCC 6803) (UniProt P74646)
T1 sequence: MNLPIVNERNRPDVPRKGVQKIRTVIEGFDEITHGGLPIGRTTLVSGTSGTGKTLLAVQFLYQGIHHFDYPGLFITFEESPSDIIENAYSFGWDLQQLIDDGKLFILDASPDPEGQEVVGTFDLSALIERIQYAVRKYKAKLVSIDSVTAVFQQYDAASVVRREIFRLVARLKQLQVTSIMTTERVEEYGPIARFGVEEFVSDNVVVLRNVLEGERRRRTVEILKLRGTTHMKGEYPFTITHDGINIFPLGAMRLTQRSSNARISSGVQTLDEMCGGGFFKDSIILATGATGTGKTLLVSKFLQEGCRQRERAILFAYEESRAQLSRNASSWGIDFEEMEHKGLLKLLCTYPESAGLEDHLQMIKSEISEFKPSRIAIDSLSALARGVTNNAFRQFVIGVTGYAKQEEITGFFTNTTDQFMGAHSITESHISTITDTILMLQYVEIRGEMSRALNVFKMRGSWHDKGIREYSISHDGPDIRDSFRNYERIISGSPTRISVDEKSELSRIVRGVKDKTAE

T2: GST-tagged KaiB3 (Synechocystis sp. strain PCC 6803) (UniProt Q55819)
T2 sequence: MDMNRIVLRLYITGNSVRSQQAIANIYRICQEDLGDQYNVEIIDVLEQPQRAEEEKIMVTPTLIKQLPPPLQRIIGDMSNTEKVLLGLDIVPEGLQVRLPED

T3: GST-tagged KaiB1 (Synechocystis sp. strain PCC 6803) (UniProt P74645)
T3 sequence: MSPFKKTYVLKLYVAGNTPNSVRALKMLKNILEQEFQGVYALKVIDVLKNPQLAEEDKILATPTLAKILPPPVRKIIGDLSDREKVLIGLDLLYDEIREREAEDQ


Experiments:
[1] = target: T1, KaiC1 (Synechocystis sp. strain PCC 6803), GAL4 AD or BD fusion (Synechocystis sp. strain PCC 6803); experiment: two-hybrid; yeast Y190, GAL4 AD and BD fusions (N or C terminus), colony-lift filter assay of beta-galactosidase activity
[2] = target: T2, GST-tagged KaiB3 (Synechocystis sp. strain PCC 6803); experiment: pull-down; in vitro pull-down: GST-tagged KaiB proteins on the affinity matrix, Synechocystis whole-cell extracts; methods not shown; only the target purified
[3] = target: T3, GST-tagged KaiB1 (Synechocystis sp. strain PCC 6803); experiment: as above

binding [1]	binding [2]	binding [3]	Binder
binds	–	–	KaiB1 (Synechocystis sp. strain PCC 6803), GAL4 AD or BD fusion (protein, UniProt P74645 1-105) MSPFKKTYVLKLYVAGNTPNSVRALKMLKNILEQEFQGVYALKVIDVLKNPQLAEEDKILATPTLAKILPPPVRKIIGDLSDREKVLIGLDLLYDEIREREAEDQ
–	binds	binds	KaiC1 in Synechocystis whole-cell extracts (protein, UniProt P74646 1-519) MNLPIVNERNRPDVPRKGVQKIRTVIEGFDEITHGGLPIGRTTLVSGTSGTGKTLLAVQFLYQGIHHFDYPGLFITFEESPSDIIENAYSFGWDLQQLIDDGKLFILDASPDPEGQEVVGTFDLSALIERIQYAVRKYKAKLVSIDSVTAVFQQYDAASVVRREIFRLVARLKQLQVTSIMTTERVEEYGPIARFGVEEFVSDNVVVLRNVLEGERRRRTVEILKLRGTTHMKGEYPFTITHDGINIFPLGAMRLTQRSSNARISSGVQTLDEMCGGGFFKDSIILATGATGTGKTLLVSKFLQEGCRQRERAILFAYEESRAQLSRNASSWGIDFEEMEHKGLLKLLCTYPESAGLEDHLQMIKSEISEFKPSRIAIDSLSALARGVTNNAFRQFVIGVTGYAKQEEITGFFTNTTDQFMGAHSITESHISTITDTILMLQYVEIRGEMSRALNVFKMRGSWHDKGIREYSISHDGPDIRDSFRNYERIISGSPTRISVDEKSELSRIVRGVKDKTAE
